From PMC4381070
No constants are given. Whether binding was seen depends on the method and setting. In cells and extracts the contact can be indirect. Binding calls can cover weak binding; strength is not graded here.

The chains behind the UniProt entries cited, without tags or fusion partners. Where a name states a change or a piece, a line headed by the entry shows the natural chain unless it says otherwise.
UniProt Q9BQ69: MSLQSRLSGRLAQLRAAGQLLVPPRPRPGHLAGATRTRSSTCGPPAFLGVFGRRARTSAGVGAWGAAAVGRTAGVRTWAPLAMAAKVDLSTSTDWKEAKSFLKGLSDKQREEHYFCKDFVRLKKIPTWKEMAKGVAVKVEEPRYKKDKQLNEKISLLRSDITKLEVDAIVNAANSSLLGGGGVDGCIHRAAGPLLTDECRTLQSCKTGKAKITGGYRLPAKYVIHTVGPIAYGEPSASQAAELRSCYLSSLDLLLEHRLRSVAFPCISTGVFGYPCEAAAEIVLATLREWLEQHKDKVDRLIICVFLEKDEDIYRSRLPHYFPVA
UniProt P09874: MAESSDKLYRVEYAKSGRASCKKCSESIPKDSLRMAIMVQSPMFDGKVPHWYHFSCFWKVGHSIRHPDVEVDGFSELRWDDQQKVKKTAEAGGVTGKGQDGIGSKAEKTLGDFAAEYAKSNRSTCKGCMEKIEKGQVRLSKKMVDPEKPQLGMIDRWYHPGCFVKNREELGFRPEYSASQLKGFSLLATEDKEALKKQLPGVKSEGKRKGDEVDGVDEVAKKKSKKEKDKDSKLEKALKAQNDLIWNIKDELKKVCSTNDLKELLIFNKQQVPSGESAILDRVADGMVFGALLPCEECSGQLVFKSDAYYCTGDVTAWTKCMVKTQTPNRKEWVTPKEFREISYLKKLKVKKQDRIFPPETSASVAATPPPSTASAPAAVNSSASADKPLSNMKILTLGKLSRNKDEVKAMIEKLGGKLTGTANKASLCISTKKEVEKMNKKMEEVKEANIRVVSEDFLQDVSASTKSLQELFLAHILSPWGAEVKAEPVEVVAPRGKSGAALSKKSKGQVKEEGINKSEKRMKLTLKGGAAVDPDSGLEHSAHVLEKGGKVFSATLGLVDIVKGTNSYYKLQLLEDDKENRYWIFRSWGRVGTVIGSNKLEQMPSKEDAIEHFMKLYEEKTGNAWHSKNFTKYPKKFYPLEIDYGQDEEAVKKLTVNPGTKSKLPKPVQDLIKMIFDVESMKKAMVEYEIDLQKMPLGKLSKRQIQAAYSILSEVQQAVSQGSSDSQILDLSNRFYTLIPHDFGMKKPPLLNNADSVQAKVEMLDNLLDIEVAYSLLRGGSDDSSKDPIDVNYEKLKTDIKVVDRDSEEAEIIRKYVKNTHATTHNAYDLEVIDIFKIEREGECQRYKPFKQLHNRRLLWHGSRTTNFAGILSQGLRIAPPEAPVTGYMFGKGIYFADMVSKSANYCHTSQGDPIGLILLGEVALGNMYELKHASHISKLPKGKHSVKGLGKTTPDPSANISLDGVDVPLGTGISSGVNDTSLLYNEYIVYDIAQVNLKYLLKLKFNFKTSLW
UniProt Q9Y6K9: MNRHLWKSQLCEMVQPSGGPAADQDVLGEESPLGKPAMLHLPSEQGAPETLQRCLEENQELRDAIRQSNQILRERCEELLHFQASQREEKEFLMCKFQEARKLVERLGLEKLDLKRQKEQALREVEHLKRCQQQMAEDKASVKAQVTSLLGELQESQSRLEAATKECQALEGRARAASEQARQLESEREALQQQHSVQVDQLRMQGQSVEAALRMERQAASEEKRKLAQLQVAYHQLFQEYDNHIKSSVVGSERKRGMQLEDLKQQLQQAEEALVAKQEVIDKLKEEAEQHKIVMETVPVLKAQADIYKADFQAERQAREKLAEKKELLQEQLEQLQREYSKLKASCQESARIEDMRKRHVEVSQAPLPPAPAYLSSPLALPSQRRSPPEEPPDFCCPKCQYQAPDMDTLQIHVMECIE

Target: FLAG-LRP16 (G270A-V271A-F271A, GVF-AAA) (UniProt Q9BQ69)
Assay: co-IP; HeLa cells transfected with a FLAG-tagged construct (the target), treated with VP16 for 30 min; whole-cell extracts, IP with anti-FLAG antibody, endogenous partner detected by immunoblot

binding | Substance
binds | PARP1 (endogenous) (from UniProt P09874 1-1014)
binds | IKKγ (endogenous) (from UniProt Q9Y6K9 1-419)
